test: Delay of setting in gypsum; conditions: 45 mg substance, 20.0 gm gypsum, 9 ml H2O

SMILES	Setting Time [min]
NC1(P(=O)(O)O)CC(=O)NP1(=O)O (stereo not shown) [n=1, R=H, 2-Hydroxy-2-oxo-3-amino-3-phosphonyl-5-oxo-1-aza-2-phospha-cyclopentane]	50
CCNC1(P(=O)(O)O)CCC(=O)N(CC)P1(=O)O (stereo not shown) [n=2, R=C2 H5, 1-Ethyl-2-hydroxy-2-oxo-3-ethylamino-3-phosphonyl-6-oxo-1-aza-2-phospha-cyclohexane]	120
CCCCNC1(P(=O)(O)O)CCC(=O)N(CCCC)P1(=O)O (stereo not shown) [n=2, R=C4 H9, 1-Butyl-2-hydroxy-2-oxo-3-butylamino-3-phosphonyl-6-oxo-1-aza-2-phospha-cyclohexane]	120
CNC1(P(=O)(O)O)CCC(=O)N(C)P1(=O)O (stereo not shown) [n=2, R=CH3, 1-Methyl-2-hydroxy-2-oxo-3-methylamino-3-phosphonyl-6-oxo-1-aza-2-phospha-cyclohexane]	100
NC1(P(=O)(O)O)CCC(=O)NP1(=O)O (stereo not shown) [n=2, R=H, 2-Hydroxy-2-oxo-3-amino-3-phosphonyl-6-oxo-1-aza-2-phospha-cyclohexane]	210
CNC1(P(=O)(O)O)CCCC(=O)N(C)P1(=O)O (stereo not shown) [n=3, R=CH3, 1-Methyl-2-hydroxy-2-oxo-3-methylamino-3-phosphonyl-7-oxo-1-aza-2-phospha-cycloheptane]	100
NC1(P(=O)(O)O)CCCC(=O)NP1(=O)O (stereo not shown) [n=3, R=H, 2-Hydroxy-2-oxo-3-amino-3-phosphonyl-7-oxo-1-aza-2-phospha-cycloheptane]	120
